Read-outs that look alike come from different tables or passages of the source. These are yes or no findings as the source states them, for the method shown. Binding seen in cells or lysates may run through a third protein. Some binding calls cover weakened binding; strength is not graded here. Where a sequence is shown, tags or fusion partners need not be part of it.

Holding throughout (assay): co-IP
In assay [1] the target is T1, Unc93b1^SKN (SKN to AAA at residues 282-284), 3xFLAG-tagged (mouse) (UniProt Q8VCW4).
T1 sequence: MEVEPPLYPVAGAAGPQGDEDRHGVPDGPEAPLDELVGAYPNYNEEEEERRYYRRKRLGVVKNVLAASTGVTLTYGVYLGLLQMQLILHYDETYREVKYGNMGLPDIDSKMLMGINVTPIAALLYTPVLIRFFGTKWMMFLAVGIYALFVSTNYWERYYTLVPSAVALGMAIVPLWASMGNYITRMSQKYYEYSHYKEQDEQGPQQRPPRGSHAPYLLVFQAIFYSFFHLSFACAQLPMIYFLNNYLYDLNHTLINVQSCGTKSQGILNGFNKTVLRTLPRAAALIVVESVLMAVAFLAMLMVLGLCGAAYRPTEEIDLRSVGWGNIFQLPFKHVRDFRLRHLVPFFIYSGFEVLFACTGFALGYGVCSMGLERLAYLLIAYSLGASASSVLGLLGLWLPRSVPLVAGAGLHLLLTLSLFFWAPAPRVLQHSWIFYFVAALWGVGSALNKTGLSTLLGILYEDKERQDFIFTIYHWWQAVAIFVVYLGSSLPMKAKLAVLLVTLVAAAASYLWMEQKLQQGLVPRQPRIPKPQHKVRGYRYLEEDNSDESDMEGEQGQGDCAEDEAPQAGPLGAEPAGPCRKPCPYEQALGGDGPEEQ

Assay [2] concerns the target T2, Unc93b1^S282A, 3xFLAG-tagged (mouse) (UniProt Q8VCW4).
T2 sequence: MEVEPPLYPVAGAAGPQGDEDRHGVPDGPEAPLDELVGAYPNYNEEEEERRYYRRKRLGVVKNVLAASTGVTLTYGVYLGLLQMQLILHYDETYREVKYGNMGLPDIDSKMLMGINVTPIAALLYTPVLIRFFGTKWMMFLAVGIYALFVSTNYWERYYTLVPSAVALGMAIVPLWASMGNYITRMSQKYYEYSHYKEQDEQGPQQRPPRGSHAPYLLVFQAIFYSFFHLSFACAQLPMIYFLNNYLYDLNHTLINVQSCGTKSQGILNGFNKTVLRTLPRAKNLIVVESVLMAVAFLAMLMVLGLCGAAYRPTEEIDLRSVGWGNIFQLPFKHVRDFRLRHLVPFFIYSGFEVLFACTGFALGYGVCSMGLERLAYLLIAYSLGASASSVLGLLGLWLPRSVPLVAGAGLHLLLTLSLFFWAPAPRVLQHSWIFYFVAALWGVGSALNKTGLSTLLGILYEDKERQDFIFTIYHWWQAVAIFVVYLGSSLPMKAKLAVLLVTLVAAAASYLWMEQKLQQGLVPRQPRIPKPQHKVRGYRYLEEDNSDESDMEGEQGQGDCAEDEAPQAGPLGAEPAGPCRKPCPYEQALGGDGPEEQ

Assay [3] deals with T3, Unc93b1 wildtype, 3xFLAG-tagged (mouse) (UniProt Q8VCW4).
T3 sequence: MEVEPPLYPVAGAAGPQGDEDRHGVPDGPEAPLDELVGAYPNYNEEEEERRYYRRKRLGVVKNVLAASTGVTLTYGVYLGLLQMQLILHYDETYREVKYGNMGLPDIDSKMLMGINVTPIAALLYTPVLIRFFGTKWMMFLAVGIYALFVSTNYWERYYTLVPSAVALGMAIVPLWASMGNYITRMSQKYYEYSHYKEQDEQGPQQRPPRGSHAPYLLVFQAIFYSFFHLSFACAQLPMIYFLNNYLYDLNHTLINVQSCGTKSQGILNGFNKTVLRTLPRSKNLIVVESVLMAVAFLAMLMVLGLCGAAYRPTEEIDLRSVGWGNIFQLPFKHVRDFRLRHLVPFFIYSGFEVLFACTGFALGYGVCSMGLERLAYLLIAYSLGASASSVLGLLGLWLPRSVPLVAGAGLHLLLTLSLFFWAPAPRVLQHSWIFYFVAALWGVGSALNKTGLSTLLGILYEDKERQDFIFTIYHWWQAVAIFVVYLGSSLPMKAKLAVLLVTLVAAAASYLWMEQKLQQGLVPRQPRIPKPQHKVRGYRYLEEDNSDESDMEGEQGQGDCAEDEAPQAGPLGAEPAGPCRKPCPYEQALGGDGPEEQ

The target of assay [4] is T4, TLR9, HA-tagged (UniProt Q9EQU3).
T4 sequence: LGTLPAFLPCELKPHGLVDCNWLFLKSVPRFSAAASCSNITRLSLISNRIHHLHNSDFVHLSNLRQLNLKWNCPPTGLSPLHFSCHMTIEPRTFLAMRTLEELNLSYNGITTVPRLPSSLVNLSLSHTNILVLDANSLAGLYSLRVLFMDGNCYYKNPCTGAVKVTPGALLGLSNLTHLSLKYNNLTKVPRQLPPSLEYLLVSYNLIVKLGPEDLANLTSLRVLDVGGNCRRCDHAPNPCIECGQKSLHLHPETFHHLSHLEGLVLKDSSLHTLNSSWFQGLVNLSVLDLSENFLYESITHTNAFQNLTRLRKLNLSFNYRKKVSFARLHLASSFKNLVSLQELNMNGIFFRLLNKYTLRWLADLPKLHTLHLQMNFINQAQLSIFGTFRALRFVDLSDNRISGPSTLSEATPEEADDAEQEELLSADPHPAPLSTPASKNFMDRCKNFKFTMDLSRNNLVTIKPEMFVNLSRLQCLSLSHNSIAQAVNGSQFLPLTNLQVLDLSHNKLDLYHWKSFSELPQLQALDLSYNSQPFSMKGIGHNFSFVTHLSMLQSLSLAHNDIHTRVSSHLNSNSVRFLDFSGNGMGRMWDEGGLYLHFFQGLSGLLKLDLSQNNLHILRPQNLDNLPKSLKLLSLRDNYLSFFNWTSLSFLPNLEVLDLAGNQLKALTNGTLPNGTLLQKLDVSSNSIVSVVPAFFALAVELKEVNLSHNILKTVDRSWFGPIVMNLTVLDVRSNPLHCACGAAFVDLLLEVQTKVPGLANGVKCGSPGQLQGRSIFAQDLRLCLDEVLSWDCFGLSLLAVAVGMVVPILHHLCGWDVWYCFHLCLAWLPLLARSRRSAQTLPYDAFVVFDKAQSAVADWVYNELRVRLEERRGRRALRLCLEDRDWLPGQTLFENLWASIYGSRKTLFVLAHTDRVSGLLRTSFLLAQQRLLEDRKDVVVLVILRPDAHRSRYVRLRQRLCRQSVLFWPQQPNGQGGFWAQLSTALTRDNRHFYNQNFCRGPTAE

For assay [5], the target named is T4, TLR9, HA-tagged. This is another data set of the same source.
Assay [6] deals with T4, TLR9, HA-tagged. The source holds these as a separate data set.
Assay [7] addresses T4, TLR9, HA-tagged. The source holds these as a separate data set.

B1: TLR7, HA-tagged (receptor, UniProt P58681 27-1050)
chain: FRWFPKTLPCEVKVNIPEAHVIVDCTDKHLTEIPEGIPTNTTNLTLTINHIPSISPDSFRRLNHLEEIDLRCNCVPVLLGSKANVCTKRLQIRPGSFSGLSDLKALYLDGNQLLEIPQDLPSSLHLLSLEANNIFSITKENLTELVNIETLYLGQNCYYRNPCNVSYSIEKDAFLVMRNLKVLSLKDNNVTAVPTTLPPNLLELYLYNNIIKKIQENDFNNLNELQVLDLSGNCPRCYNVPYPCTPCENNSPLQIHDNAFNSLTELKVLRLHSNSLQHVPPTWFKNMRNLQELDLSQNYLAREIEEAKFLHFLPNLVELDFSFNYELQVYHASITLPHSLSSLENLKILRVKGYVFKELKNSSLSVLHKLPRLEVLDLGTNFIKIADLNIFKHFENLKLIDLSVNKISPSEESREVGFCPNAQTSVDRHGPQVLEALHYFRYDEYARSCRFKNKEPPSFLPLNADCHIYGQTLDLSRNNIFFIKPSDFQHLSFLKCLNLSGNTIGQTLNGSELWPLRELRYLDFSNNRLDLLYSTAFEELQSLEVLDLSSNSHYFQAEGITHMLNFTKKLRLLDKLMMNDNDISTSASRTMESDSLRILEFRGNHLDVLWRAGDNRYLDFFKNLFNLEVLDISRNSLNSLPPEVFEGMPPNLKNLSLAKNGLKSFFWDRLQLLKHLEILDLSHNQLTKVPERLANCSKSLTTLILKHNQIRQLTKYFLEDALQLRYLDISSNKIQVIQKTSFPENVLNNLEMLVLHHNRFLCNCDAVWFVWWVNHTDVTIPYLATDVTCVGPGAHKGQSVISLDLYTCELDLTNLILFSVSISSVLFLMVVMTTSHLFFWDMWYIYYFWKAKIKGYQHLQSMESCYDAFIVYDTKNSAVTEWVLQELVAKLEDPREKHFNLCLEERDWLPGQPVLENLSQSIQLSKKTVFVMTQKYAKTESFKMAFYLSHQRLLDEKVDVIILIFLEKPLQKSKFLQLRKRLCRSSVLEWPANPQAHPYFWQCLKNALTTDNHVAYSQMFKETV
On to B1, for which the binding result in assay [1], in assay [2] and in assay [3] was “binds” throughout.

B2: Unc93b1^SKN (SKN to AAA at residues 282-284), 3xFLAG-tagged (protein, UniProt Q8VCW4 1-598)
chain: MEVEPPLYPVAGAAGPQGDEDRHGVPDGPEAPLDELVGAYPNYNEEEEERRYYRRKRLGVVKNVLAASTGVTLTYGVYLGLLQMQLILHYDETYREVKYGNMGLPDIDSKMLMGINVTPIAALLYTPVLIRFFGTKWMMFLAVGIYALFVSTNYWERYYTLVPSAVALGMAIVPLWASMGNYITRMSQKYYEYSHYKEQDEQGPQQRPPRGSHAPYLLVFQAIFYSFFHLSFACAQLPMIYFLNNYLYDLNHTLINVQSCGTKSQGILNGFNKTVLRTLPRAAALIVVESVLMAVAFLAMLMVLGLCGAAYRPTEEIDLRSVGWGNIFQLPFKHVRDFRLRHLVPFFIYSGFEVLFACTGFALGYGVCSMGLERLAYLLIAYSLGASASSVLGLLGLWLPRSVPLVAGAGLHLLLTLSLFFWAPAPRVLQHSWIFYFVAALWGVGSALNKTGLSTLLGILYEDKERQDFIFTIYHWWQAVAIFVVYLGSSLPMKAKLAVLLVTLVAAAASYLWMEQKLQQGLVPRQPRIPKPQHKVRGYRYLEEDNSDESDMEGEQGQGDCAEDEAPQAGPLGAEPAGPCRKPCPYEQALGGDGPEEQ
As to B2, the binding entry in assay [4] is on record as “binds”.

B3: Unc93b1^S282A, 3xFLAG-tagged (protein, UniProt Q8VCW4 1-598)
chain: MEVEPPLYPVAGAAGPQGDEDRHGVPDGPEAPLDELVGAYPNYNEEEEERRYYRRKRLGVVKNVLAASTGVTLTYGVYLGLLQMQLILHYDETYREVKYGNMGLPDIDSKMLMGINVTPIAALLYTPVLIRFFGTKWMMFLAVGIYALFVSTNYWERYYTLVPSAVALGMAIVPLWASMGNYITRMSQKYYEYSHYKEQDEQGPQQRPPRGSHAPYLLVFQAIFYSFFHLSFACAQLPMIYFLNNYLYDLNHTLINVQSCGTKSQGILNGFNKTVLRTLPRAKNLIVVESVLMAVAFLAMLMVLGLCGAAYRPTEEIDLRSVGWGNIFQLPFKHVRDFRLRHLVPFFIYSGFEVLFACTGFALGYGVCSMGLERLAYLLIAYSLGASASSVLGLLGLWLPRSVPLVAGAGLHLLLTLSLFFWAPAPRVLQHSWIFYFVAALWGVGSALNKTGLSTLLGILYEDKERQDFIFTIYHWWQAVAIFVVYLGSSLPMKAKLAVLLVTLVAAAASYLWMEQKLQQGLVPRQPRIPKPQHKVRGYRYLEEDNSDESDMEGEQGQGDCAEDEAPQAGPLGAEPAGPCRKPCPYEQALGGDGPEEQ
Take B3: the binding result in assay [5], in assay [6], in assay [4] and in assay [7] was “binds” each time.

The values above are taken from paper doi:10.1101/410092.
